Test results as given in US10278958B2, “IPA as a protective agent” (IXCELA, INC., priority 2012, dated 2019).

Test: IPA levels in plasma of disease and control subjects (LC-EC array, archived and current studies)
Set-up: species or system human

For `O=C(O)CCc1c[nH]c2ccccc12` [IPA, indole-3-propionic acid], the “mean IPA” value (Study 3, plasma, AD N=30) was 154.3, the “mean IPA” value (Study 3, plasma, Controls n=30) was 189.3 ng/mL and the “mean IPA” value (Study 4, plasma, ALS and Lower Motor Neuron Disease N=30) was 167.8 ng/mL. The “mean IPA” value (Study 4, plasma, Controls N=30) was 192.3 ng/mL, the “mean IPA” value (Study 6, plasma, ALS N=23) was 172.0 and the “mean IPA” value (Study 6, plasma, Control N=27) was 201.2. The “mean IPA” value (Study 8, plasma, ALS N=48) was 172.7, the “mean IPA” value (Study 8, plasma, Control N=56) was 201.4 and the “mean IPA” value (Study 10, plasma, Controls N=20) was 186.9. The “mean IPA” value (Study 10, plasma, Un-medicated PD) was 172.2, the “mean IPA” value (Study 11, plasma, Controls N=30) was 196.01 and the “mean IPA” value (Study 11, plasma, Un medicated PD) was 167.90. The “mean IPA” value (Study 12, plasma, ischemic heart subjects N=20, 1 hour post mental stress test) was 161.3 ng/mL, the “mean IPA” value (Study 13, jugular plasma, Hemorrhagic stroke N=18, contra lateral) was 112.09 ng/mL and the “mean IPA” value (Study 13, jugular plasma, Hemorrhagic stroke N=18, ipsilateral) was 102.1 ng/mL. The “mean IPA” value (Study 13, jugular plasma, ischemic stroke n=22, contra lateral) was 83.1 ng/mL and the “mean IPA” value (Study 13, jugular plasma, ischemic stroke n=22, ipsilateral) was 88.7 ng/mL.
